Results from the supplement of paper PMC10849652.
The other results are listed elsewhere or left out.

Amino acid sequences for entries named in this document (tags omitted). A change or cut given only in a name is not applied to a line headed by its entry.
UniProt P19256, whole entry, looked up: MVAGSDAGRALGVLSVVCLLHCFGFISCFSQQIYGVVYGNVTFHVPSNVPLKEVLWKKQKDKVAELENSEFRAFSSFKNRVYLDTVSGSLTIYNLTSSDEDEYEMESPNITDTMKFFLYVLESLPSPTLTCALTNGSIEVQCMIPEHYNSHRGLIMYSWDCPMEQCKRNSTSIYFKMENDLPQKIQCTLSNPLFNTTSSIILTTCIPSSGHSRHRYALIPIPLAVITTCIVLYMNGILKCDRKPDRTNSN
UniProt Q9BUN5: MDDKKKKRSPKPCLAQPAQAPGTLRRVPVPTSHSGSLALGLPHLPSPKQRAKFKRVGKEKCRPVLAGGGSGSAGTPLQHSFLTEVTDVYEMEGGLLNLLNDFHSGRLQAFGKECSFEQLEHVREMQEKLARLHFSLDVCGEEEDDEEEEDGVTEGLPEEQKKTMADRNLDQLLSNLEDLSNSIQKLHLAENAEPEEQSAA
UniProt Q5T0F9: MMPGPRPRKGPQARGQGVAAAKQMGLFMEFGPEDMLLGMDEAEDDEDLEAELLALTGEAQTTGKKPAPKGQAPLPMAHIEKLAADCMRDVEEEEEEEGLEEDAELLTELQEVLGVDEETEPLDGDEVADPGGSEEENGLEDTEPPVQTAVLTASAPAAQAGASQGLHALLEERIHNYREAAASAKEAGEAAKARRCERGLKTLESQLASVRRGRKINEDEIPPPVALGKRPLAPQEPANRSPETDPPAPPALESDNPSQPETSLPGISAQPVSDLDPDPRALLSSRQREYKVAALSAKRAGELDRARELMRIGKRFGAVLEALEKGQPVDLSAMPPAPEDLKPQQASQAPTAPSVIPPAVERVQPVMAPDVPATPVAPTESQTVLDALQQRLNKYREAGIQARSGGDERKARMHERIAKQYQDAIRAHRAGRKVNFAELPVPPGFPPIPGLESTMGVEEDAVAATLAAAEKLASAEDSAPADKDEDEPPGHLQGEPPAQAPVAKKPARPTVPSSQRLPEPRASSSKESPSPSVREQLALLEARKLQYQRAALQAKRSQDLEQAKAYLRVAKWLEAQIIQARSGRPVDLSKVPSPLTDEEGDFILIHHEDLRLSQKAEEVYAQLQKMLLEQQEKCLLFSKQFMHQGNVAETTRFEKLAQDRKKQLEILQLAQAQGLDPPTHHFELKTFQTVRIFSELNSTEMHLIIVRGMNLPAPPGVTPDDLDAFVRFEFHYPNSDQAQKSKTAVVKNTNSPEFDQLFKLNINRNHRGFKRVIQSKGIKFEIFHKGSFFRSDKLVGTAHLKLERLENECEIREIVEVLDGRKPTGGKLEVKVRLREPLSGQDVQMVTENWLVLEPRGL
UniProt Q6P4E1: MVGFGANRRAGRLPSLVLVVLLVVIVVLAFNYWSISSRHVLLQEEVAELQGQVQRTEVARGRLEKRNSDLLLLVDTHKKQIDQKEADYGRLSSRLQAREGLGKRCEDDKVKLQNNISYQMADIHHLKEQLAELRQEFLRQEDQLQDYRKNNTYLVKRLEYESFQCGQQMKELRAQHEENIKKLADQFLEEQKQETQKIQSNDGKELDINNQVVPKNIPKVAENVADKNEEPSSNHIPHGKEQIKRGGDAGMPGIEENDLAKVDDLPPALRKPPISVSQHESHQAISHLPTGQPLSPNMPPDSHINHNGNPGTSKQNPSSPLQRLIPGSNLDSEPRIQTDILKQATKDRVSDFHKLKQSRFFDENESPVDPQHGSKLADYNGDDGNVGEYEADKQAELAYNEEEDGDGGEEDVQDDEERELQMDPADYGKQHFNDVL
UniProt Q96BQ5: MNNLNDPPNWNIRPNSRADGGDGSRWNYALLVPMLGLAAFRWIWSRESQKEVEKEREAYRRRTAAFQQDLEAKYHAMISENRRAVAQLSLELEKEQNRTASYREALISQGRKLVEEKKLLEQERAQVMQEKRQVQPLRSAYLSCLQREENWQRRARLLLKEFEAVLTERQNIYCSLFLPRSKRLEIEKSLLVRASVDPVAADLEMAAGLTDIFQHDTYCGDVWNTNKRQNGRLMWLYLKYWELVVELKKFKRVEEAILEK
UniProt Q5ZPR3: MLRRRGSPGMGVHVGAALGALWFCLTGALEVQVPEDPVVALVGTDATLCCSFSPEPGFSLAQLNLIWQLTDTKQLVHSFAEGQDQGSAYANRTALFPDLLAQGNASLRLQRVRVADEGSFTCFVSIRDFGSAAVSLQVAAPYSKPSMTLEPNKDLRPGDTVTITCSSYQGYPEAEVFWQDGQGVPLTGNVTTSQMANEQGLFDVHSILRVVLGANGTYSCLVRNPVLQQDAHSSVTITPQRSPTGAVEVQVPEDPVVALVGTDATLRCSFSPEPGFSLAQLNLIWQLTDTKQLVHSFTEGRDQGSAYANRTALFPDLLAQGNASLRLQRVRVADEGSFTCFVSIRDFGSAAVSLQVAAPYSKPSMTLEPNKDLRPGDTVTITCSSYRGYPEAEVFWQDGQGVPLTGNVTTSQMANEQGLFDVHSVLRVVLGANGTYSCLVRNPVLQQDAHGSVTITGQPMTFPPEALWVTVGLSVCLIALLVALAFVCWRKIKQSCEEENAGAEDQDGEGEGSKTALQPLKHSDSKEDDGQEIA
UniProt Q96MW1: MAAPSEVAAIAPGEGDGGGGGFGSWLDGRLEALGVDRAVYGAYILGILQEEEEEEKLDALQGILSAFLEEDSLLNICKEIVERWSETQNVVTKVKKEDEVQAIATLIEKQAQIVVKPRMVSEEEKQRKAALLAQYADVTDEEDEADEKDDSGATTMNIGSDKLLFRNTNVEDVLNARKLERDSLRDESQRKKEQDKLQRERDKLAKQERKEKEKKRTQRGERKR
UniProt Q9P031: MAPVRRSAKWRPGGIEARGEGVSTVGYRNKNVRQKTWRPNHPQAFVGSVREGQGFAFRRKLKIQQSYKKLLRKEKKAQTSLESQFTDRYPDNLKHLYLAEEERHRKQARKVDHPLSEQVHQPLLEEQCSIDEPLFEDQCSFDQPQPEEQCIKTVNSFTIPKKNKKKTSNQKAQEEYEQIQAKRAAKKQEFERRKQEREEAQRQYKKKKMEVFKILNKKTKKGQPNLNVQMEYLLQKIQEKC
UniProt O60583: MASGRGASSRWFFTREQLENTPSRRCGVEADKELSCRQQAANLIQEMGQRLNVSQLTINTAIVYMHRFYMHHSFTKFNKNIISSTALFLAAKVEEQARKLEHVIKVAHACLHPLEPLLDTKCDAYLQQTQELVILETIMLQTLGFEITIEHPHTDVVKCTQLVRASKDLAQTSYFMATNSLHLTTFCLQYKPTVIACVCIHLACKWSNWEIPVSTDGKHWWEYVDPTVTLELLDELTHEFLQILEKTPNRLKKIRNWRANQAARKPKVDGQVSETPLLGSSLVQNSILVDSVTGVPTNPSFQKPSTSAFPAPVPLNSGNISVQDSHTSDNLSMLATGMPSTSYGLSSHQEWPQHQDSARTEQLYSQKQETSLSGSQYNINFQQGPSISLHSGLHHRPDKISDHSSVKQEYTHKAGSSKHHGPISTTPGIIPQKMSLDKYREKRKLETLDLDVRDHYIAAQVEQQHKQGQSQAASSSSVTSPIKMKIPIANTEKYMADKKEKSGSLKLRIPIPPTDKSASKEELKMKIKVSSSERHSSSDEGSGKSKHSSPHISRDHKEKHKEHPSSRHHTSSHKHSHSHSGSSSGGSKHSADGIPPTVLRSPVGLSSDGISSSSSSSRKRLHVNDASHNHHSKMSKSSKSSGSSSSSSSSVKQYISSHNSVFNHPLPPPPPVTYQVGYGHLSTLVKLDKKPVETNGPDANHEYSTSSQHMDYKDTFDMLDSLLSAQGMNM
UniProt O00421: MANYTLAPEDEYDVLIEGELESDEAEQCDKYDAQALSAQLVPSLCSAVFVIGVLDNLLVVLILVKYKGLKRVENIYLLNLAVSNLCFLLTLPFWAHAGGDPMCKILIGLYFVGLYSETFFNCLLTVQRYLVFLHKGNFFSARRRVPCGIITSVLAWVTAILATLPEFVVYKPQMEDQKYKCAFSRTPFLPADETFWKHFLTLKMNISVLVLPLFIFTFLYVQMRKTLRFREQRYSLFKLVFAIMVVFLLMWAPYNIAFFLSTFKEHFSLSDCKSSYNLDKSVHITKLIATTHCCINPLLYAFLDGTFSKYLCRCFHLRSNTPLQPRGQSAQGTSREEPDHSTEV
UniProt Q04900: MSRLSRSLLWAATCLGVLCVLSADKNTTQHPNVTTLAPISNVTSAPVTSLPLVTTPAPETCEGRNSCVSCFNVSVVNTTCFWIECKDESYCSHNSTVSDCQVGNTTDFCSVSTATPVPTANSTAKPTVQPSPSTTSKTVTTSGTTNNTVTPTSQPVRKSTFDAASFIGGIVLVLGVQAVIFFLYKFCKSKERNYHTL
UniProt P24864, whole entry, looked up: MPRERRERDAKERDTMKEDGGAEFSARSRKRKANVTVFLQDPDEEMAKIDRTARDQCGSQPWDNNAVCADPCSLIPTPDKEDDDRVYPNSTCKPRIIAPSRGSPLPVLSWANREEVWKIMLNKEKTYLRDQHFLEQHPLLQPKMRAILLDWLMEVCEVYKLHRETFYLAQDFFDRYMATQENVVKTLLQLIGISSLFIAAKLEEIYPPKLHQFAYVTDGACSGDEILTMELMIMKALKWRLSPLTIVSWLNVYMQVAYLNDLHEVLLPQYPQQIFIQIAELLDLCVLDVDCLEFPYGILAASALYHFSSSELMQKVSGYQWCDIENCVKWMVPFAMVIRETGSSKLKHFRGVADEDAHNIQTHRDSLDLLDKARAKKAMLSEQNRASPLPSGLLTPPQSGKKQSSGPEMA
UniProt P55210: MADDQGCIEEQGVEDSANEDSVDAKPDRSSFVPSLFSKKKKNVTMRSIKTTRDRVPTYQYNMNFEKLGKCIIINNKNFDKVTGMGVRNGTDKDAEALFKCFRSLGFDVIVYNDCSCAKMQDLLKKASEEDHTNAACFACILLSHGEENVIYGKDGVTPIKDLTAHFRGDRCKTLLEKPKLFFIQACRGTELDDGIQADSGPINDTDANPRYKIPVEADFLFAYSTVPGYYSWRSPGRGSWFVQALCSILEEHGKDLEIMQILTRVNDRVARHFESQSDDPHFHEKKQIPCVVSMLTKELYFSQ
UniProt P30279, whole entry, looked up: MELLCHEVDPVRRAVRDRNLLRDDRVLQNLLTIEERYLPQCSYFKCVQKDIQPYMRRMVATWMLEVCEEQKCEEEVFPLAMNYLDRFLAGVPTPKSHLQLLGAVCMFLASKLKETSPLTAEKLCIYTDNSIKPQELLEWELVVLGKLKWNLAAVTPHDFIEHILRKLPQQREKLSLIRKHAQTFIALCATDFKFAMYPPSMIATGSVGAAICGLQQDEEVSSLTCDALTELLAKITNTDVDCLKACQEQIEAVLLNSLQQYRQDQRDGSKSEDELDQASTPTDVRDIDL
UniProt Q96EE4: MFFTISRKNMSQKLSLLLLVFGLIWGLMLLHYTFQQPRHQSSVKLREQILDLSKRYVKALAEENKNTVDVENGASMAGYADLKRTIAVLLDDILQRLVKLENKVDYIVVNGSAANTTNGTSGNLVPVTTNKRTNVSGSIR
UniProt P20138, whole entry, looked up: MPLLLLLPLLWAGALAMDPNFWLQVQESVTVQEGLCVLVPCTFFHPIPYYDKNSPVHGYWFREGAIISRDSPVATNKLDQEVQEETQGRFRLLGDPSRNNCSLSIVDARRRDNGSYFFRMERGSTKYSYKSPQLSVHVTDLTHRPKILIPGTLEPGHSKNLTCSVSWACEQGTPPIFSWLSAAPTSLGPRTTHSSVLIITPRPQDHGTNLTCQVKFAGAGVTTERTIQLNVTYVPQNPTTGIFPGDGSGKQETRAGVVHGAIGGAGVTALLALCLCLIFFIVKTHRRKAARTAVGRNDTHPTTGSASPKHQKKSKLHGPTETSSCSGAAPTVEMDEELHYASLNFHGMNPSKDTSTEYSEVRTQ
UniProt A6NKD9: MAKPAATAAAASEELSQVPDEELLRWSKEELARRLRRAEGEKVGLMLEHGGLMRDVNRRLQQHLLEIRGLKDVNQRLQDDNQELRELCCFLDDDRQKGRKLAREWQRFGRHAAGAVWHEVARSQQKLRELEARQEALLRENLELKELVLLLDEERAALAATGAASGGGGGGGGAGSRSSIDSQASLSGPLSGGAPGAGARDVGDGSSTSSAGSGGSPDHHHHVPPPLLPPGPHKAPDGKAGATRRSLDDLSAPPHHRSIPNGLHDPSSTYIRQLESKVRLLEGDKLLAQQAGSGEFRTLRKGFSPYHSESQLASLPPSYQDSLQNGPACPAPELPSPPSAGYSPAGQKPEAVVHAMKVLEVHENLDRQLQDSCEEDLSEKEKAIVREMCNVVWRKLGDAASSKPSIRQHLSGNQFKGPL
UniProt P24385, whole entry, looked up: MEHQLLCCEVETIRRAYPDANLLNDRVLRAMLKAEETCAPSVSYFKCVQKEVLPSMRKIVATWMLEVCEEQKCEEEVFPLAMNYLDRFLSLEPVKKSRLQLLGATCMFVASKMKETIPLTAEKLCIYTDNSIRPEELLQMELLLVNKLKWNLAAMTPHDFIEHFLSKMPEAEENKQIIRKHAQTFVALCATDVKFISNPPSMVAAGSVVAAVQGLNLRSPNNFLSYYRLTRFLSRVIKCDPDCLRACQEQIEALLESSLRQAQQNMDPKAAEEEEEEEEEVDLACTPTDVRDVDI
UniProt Q9P0B6: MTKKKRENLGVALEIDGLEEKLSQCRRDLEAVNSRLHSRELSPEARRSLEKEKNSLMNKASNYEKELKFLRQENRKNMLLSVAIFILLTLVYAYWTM

Tests used:
Assay in all cases: log2 fold change, soluble protein after heating vs DMSO (PISA); higher = thermal stabilisation; K562 lysate, 10 uM; active = over 0.2 and 3.5 SD of the protein, either way, in both replicates (recomputed)
[1] = compound: NCC(=O)Nc1ccc(-n2nc(C(F)(F)F)cc2-c2ccc3c(ccc4ccccc43)c2)cc1
How it was run: (§1)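 Soluble protein was defined as the supernatant remaining after 21,000xg for 90 min, following pooling of heated aliquots and adjustment to 0.5% NP-40 at 4°C. Before that, crude K562 extract at 1 mg/mL protein in PBS pH 7.4 with 1 mM MgCl2 was treated with 10 μM compound for 30 min and heated for 3 min across 48°C-58°C. Quantification used TMTpro 16plex LC-MS/MS with channel sums equalised, and values are log-two fold changes in thermal stability relative to solvent controls from duplicates.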

[2] = compound: O=C(CCCCCCC(=O)Nc1ccccc1)NO [vorinostat]
How it was run: as §1

[3] = compound: O=C(O)c1ccc2c(c1)nc(Nc1cccc(Cl)c1)c1ccncc12 [silmitasertib]
How it was run: as §1

[4] = compound: O=C1NC(=O)C(c2cnc3ccccn23)=C1c1cn2c3c(cc(F)cc13)CN(C(=O)N1CCCCC1)CC2
How it was run: as §1

[5] = compound: c1cn2cc(-c3ccc4cn[nH]c4c3)nc(Nc3ccc(N4CCOCC4)cc3)c2n1 [entospletinib]
How it was run: as §1

Target | log2 fold change [1] | log2 fold change [2] | log2 fold change [3] | log2 fold change [4] | log2 fold change [5]
CD58 (UniProt P19256) | inactive: -0.053 | inactive: 0.023 | inactive: -0.029 | inactive: -0.049 | inactive: -0.005
CCDC9 (UniProt Q9Y3X0) | inactive: 0.003 | inactive: 0.139 | inactive: -0.031 | inactive: -0.007 | inactive: -0.036
CCZ1 (UniProt P86791) | inactive: -0.003 | inactive: -0.165 | inactive: 0.043 | inactive: -0.013 | inactive: -0.012
CCDC28B (UniProt Q9BUN5) | inactive: -0.12 | inactive: -0.036 | inactive: -0.022 | inactive: -0.041 | inactive: -0.058
CCDC144A (UniProt A2RUR9) | inactive: 0.186 | inactive: 0.041 | inactive: -0.081 | inactive: 0.037 | inactive: -0.039
CCPG1 isoform 5 (UniProt Q9ULG6) | inactive: -0.022 | inactive: 0.043 | inactive: -0.012 | inactive: -0.025 | inactive: 0
CC2D1B isoform 2 (UniProt Q5T0F9) | inactive: 0 | inactive: -0.023 | inactive: -0.004 | inactive: -0.004 | inactive: -0.035
CARM1 (UniProt Q86X55) | inactive: 0.015 | inactive: 0.025 | inactive: -0.009 | inactive: -0.024 | inactive: 0.014
CARD9 (UniProt Q9H257) | inactive: 0.008 | active: -0.217 | inactive: 0.011 | inactive: 0.014 | inactive: -0.038
CCNK isoform 4 (UniProt O75909) | inactive: 0.032 | inactive: 0.093 | inactive: -0.007 | inactive: -0.051 | inactive: -0.002
CCDC12 (UniProt Q8WUD4) | inactive: -0.002 | inactive: 0.044 | inactive: -0.04 | inactive: -0.086 | inactive: -0.032
CAST isoform 6 (UniProt P20810) | inactive: 0.016 | inactive: 0.064 | inactive: -0.032 | inactive: -0.003 | inactive: -0.002
CCDC50 isoform 2 (UniProt Q8IVM0) | inactive: -0.062 | inactive: -0.001 | inactive: 0.012 | inactive: -0.003 | inactive: 0.01
CASC3 (UniProt O15234) | inactive: 0.032 | inactive: 0.075 | inactive: -0.013 | inactive: 0.021 | inactive: 0.018
CASC4 (UniProt Q6P4E1) | inactive: -0.034 | inactive: 0.02 | inactive: 0.019 | inactive: 0.025 | inactive: -0.029
CASTOR1 (UniProt Q8WTX7) |  |  |  | inactive: -0.07 | 
CCDC50 (UniProt Q8IVM0) |  | inactive: -0.01 | inactive: -0.029 | inactive: 0.076 | inactive: 0.048
CCDC130 (UniProt P13994) |  | inactive: -0.003 | inactive: 0.173 | inactive: -0.306 | inactive: -0.076
CCNL1 (UniProt Q9UK58) |  |  |  | inactive: -0.041 | inactive: -0.059
CCDC127 (UniProt Q96BQ5) |  | inactive: -0.062 | inactive: 0.038 | inactive: -0.107 | inactive: 0.028
CD276 (UniProt Q5ZPR3) |  | inactive: 0.218 | inactive: -0.039 |  | 
CCND3 (UniProt P30281) |  | inactive: -0.051 | inactive: 0.017 | inactive: 0.086 | inactive: 0.062
CAV2 (UniProt P51636) |  | inactive: 0.114 | inactive: -0.227 | inactive: -0.064 | 
CD46 (UniProt P15529) |  | inactive: 0.201 | inactive: 0.072 | inactive: -0.161 | 
CCDC9, A0A2R8Y4Z8 |  |  |  | inactive: 0.173 | 
CCDC43 isoform 2 (UniProt Q96MW1) |  | inactive: 0.275 | inactive: -0.057 |  | 
CCDC59 (UniProt Q9P031) | inactive: 0.014 |  |  | inactive: -0.003 | inactive: 0.09

Reprinted from above (four entries):
Target | log2 fold change [1] | log2 fold change [2] | log2 fold change [3] | log2 fold change [4] | log2 fold change [5]
CCNL1 (UniProt Q9UK58) |  |  |  | inactive: -0.041 | inactive: -0.059
CCDC127 (UniProt Q96BQ5) |  | inactive: -0.062 | inactive: 0.038 | inactive: -0.107 | inactive: 0.028
CD276 (UniProt Q5ZPR3) |  | inactive: 0.218 | inactive: -0.039 |  | 
CCND3 (UniProt P30281) |  | inactive: -0.051 | inactive: 0.017 | inactive: 0.086 | inactive: 0.062

Later entries

Target | log2 fold change [1] | log2 fold change [2] | log2 fold change [3] | log2 fold change [4] | log2 fold change [5]
CD44 (UniProt P16070) |  | inactive: -0.005 | inactive: 0.055 |  | inactive: 0.041
CCDC13 (UniProt Q8IYE1) | inactive: 0.274 |  |  | inactive: 0.188 | inactive: -0.055
CCDC175 (UniProt P0C221) | inactive: 0.353 |  |  |  | inactive: 0.002
CCNT2 (UniProt O60583) | inactive: 0.035 |  |  | inactive: -0.031 | inactive: 0.059
CCDC57 (UniProt Q2TAC2) | inactive: 0.006 |  |  |  | inactive: -0.026
CCRL2 isoform 2 (UniProt O00421) |  | inactive: 0.137 | inactive: -0.225 |  | 
CASP8AP2 (UniProt Q9UKL3) |  |  |  | inactive: 0.054 | inactive: 0.119
CBX3 (UniProt B8ZZ43) |  |  |  | inactive: 0.178 | 
CD164 (UniProt Q04900) |  | inactive: 0.117 | inactive: -0.195 | inactive: -0.004 | 
CASP10 isoform 2 (UniProt Q92851) |  |  |  |  | inactive: 0.088
CBX8 (UniProt Q9HC52) | inactive: -0.164 |  |  | inactive: 0.059 | inactive: -0.161
CBFB (UniProt Q13951) |  | inactive: -0.005 | inactive: 0.025 | inactive: -0.041 | inactive: -0.032
CCT3 (UniProt E9PM09) | inactive: 0.292 | inactive: -0.381 | inactive: -0.097 |  | inactive: 0.089
CCNE1 (UniProt P24864) | inactive: 0.084 |  |  | inactive: 0.035 | inactive: -0.149
CD68 (UniProt P34810) |  | inactive: 0.169 | inactive: -0.258 | inactive: 0.219 | inactive: 0.071
CASP7 isoform 3 (UniProt P55210) |  | inactive: -0.254 | inactive: 0.113 | inactive: 0.01 | inactive: 0.063
CCDC186 (UniProt Q7Z3E2) | inactive: 0.052 | inactive: 0.005 | inactive: 0.057 | inactive: 0.012 | inactive: -0.01
CD69 (UniProt Q07108) |  |  |  | inactive: -0.026 | 
CCDC18 (UniProt Q5T9S5) |  |  |  | inactive: 0.05 | inactive: 0.03
CCND2 (UniProt P30279) |  | inactive: 0.206 | inactive: -0.024 | inactive: -0.005 | 
CCDC126 (UniProt Q96EE4) |  | inactive: -0.026 | inactive: -0.059 | inactive: -0.058 | 
CCDC66 (UniProt A2RUB6) |  |  |  |  | inactive: 0.094
CD33 (UniProt P20138) |  |  |  | inactive: -0.32 | 
CCDC85C (UniProt A6NKD9) | inactive: 0.096 |  |  | inactive: 0.058 | inactive: -0.005
CCND1 (UniProt P24385) |  |  |  | inactive: 0.069 | 
CCDC167 (UniProt Q9P0B6) |  | inactive: 0.096 | inactive: 0.16 | inactive: 0.046 | 
CCT8 (UniProt H7C4C8) |  |  |  | inactive: 0.124 | 
